Assay results published in article PMC3741135.
These are yes or no findings as the source states them, for the method shown. In cells and extracts the contact can be indirect. A result given as binding can be weak or reduced; the word gives no strength.

By UniProt entry, the sequences of proteins in these tests, tags left out. Where a name states a change or a piece, a line headed by the entry shows the natural chain unless it says otherwise.
UniProt G9BWQ2: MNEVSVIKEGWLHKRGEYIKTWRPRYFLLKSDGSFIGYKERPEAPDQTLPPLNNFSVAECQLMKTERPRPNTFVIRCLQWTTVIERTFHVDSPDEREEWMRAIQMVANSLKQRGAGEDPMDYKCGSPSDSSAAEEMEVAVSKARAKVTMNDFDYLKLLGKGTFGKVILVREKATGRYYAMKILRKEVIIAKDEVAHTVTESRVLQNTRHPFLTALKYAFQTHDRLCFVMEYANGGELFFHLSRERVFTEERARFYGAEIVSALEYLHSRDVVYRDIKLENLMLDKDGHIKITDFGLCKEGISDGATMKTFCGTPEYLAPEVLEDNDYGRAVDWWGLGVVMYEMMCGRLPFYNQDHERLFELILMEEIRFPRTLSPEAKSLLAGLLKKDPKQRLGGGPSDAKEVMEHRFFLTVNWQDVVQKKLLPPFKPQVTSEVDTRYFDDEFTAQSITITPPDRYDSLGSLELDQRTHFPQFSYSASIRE

Assays:
Assay in all cases: co-IP; endogenous proteins; 10 mg total porcine adipocyte lysate with 4 µg antibody overnight, captured on goat anti-rabbit or anti-mouse IgG magnetic beads for 4 h; washed 4 times with lysis buffer; Western blot; Akt2 with Sirt1 over the days of differentiation, the other pairs at day 8 after induction
[1] = biological target: Akt2 (endogenous, porcine adipocytes) (pig (endogenous in porcine adipocytes)) (UniProt G9BWQ2)
[2] = biological target: GSK3β (endogenous, porcine adipocytes) (pig (endogenous in porcine adipocytes))
[3] = biological target: PI3K (endogenous, porcine adipocytes) (pig (endogenous in porcine adipocytes))

Measured: binding

B1: Sirt1 (endogenous, porcine adipocytes) (protein, UniProt A7LKB1 1-742)
chain: MADEAALALQPGGSPSAVAAEREAPSPPAGEPLRKKPRRDGPGVGRSPGEPGGAALERELPAAAGGCPAAAVLWRETAAGGEREAQAAAAAGEGNNGPGLQGLSREAPPADDFYDDDDDDEGEEEEEAAAAAAIGYRDNLLFGDEIVTNGFHSCESDEDDRASHASSSDWTPRPRIGPYTFVQQHLMIGTDPRTILKDLLPETIPPPELDDMTLWQIVINILSEPPKRKKRKDINTIEDAVKLLQECKKIIVLTGAGVSVSCGIPDFRSRDGIYARLAVDFPDLPDPQAMFDIEYFRKDPRPFFKFAKEIYPGQFQPSLCHKFIALSDKEGKLLRNYTQNIDTLEQVAGIQRIIQCHGSFATASCLICKYKVDCEAVRGDIFNQVVPRCPRCPADEPLAIMKPEIVFFGENLPEQFHRAMKYDKDEVDLLIVIGSSLKVRPVALIPSSIPHEVPQILINREPLPHLHFDVELLGDCDVIINELCHRLGGEYAKLCCNPVKLSEITEKPPRTQKELAHLSELPPTPLNISEGSSSPERTSPPASSVTLPLLDQATKSNVDDLDVSESKDCVEEKSQEVQTSRSIESVKEPMESPGLKNVACSNGEKNERTSVAETVRKCWPARLAKEQISKRLDGNQYLFLPPNRYIFHGAEVYSDSEDDVLSSSSCGSNSESGTCQSPSLEEPMEDESEIEEFYNGLEDDADVNMRAGGTGFGADGSDQEAVNEAISMKQEATGVNYPSNKS
binds: all assays above
